Measured values as given in publication PMC7819943, “Rice protein-binding microarrays: a tool to detect cis-acting elements near promoter regions in rice”.
Some of the results follow.

Each sequence was assayed against T1, OsSMF1 (Oryza sativa, UniProt Q6ZLB0 1-436) (assay: protein-binding microarray (RPBM); PBS, 2% BSA, 51.3 ng/ul salmon testes DNA, 50 uM zinc acetate, 200 nM TF, 25 C, 1 h; high values mean tight binding). Conditions: protein: recombinant; tags: N-terminal polyhistidine and DsRed monomer fusion (pET32a); chain copies: 2; label: CyDye5-dUTP incorporated in the synthesized complementary strand; 3' TTTTT single-stranded linker to array surface; dsDNA, one strand shown.
T1 sequence: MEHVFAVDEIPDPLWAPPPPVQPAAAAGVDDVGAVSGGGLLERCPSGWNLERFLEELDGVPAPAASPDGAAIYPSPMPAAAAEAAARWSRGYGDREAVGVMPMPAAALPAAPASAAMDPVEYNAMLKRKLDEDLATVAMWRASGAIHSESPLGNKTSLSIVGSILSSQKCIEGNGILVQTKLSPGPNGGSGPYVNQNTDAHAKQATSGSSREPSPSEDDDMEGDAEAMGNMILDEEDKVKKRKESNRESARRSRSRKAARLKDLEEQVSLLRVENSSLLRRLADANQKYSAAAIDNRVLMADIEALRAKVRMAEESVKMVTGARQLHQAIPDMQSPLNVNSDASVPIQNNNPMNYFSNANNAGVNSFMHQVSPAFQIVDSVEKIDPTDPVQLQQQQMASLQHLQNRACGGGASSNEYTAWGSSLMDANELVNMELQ
How it was run: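 Binding signal is reported as fluorescence intensity per feature (arbitrary units) from an Axon 4000B scanner. Incubation used 200 nM of each Ni–NTA-purified, N-terminally polyhistidine- and DsRed-fused transcription factor from E. coli BL21-CodonPlus on a double-stranded custom Agilent array for 1 h at 25 °C, with 50 µM zinc acetate in the buffer, followed by washing.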

Question: For “GCCACTTTTCTCCACGTGTGCTCCCGTCCACACGTCATCCCGGAGTCACCTAGTGCAG”, which binding signal is on record?
Answer: 12400 fluorescence intensity (a.u.)

Question: Which binding signal does the source give for “GTGTGTGTGTGTGTTTCAAGCTGCTGCGTCGCTGTCGTGGCGGAGTCACCTAGTGCAG” here?
Answer: 5210 fluorescence intensity (a.u.)

Question: Which binding signal does the source give for “TTTCCTTTCACGAGCCGCGCGGCGCACAGAGCGTTTGCTGCGGAGTCACCTAGTGCAG” here?
Answer: 3280 fluorescence intensity (a.u.)

Question: “AAGCTGCCCTTCTTCGCCTCGAACGCCTCCACGTCGTCCTCGGAGTCACCTAGTGCAG” was tested. Which binding signal did it give?
Answer: 8620 fluorescence intensity (a.u.)

Question: Which binding signal does the source give for “ATTTGTCTTATAAGCAGTATTTTATTATCCAACCTGTGAGCGGAGTCACCTAGTGCAG” here?
Answer: 3300 fluorescence intensity (a.u.)

Question: “ATTGGCTGTTTCGTTTGCTATGTCATTGGCTTTCCCGCGCCGGAGTCACCTAGTGCAG” was tested. Which binding signal did it give?
Answer: 3500 fluorescence intensity (a.u.)

Question: How did the binding signal turn out when “AACATAAATGTGATTCATCACCTCTAACTATTTCAGTTAGCGGAGTCACCTAGTGCAG” was run?
Answer: 3200 fluorescence intensity (a.u.)

Question: “CTTTTAGCAAAGGCTAATGAACTAATCTGGTTAAACTATACGGAGTCACCTAGTGCAG” was tested. Which binding signal did it give?
Answer: 3310 fluorescence intensity (a.u.)

Question: “ATCTTGCACAACTGTTGGATTCAAGTCTGAGATGAAAACACGGAGTCACCTAGTGCAG” was tested. Which binding signal did it give?
Answer: 3380 fluorescence intensity (a.u.)

Question: How did the binding signal turn out when “CGGTGGCGCGGACGTGGCCGAGCTCTGCGCCGTGGCGGCGCGGAGTCACCTAGTGCAG” was run?
Answer: 7330 fluorescence intensity (a.u.)

Question: For “AGGAGATGGAGGCCTGACGTGGCCTGGCTCCCCAAGGCCCCGGAGTCACCTAGTGCAG”, which binding signal is on record?
Answer: 23800 fluorescence intensity (a.u.)

Question: Which binding signal does the source give for “CAACAAACAAACACGTACACAACCTTCTCAATTCTCACTACGGAGTCACCTAGTGCAG” here?
Answer: 3180 fluorescence intensity (a.u.)

Question: How did the binding signal turn out when “ATATAAAATTAACGTGGATAATCACATTTTCCTACACATTCGGAGTCACCTAGTGCAG” was run?
Answer: 3490 fluorescence intensity (a.u.)

Question: For “CTAGTTTAGCCAATTAAGCTAATCAGCCCCTCGAAACCTCCGGAGTCACCTAGTGCAG”, which binding signal is on record?
Answer: 3200 fluorescence intensity (a.u.)

Question: For “GTTCCGACTATCGATGACGTAGGTACGTAAACCATCATCACGGAGTCACCTAGTGCAG”, which binding signal is on record?
Answer: 6690 fluorescence intensity (a.u.)

Question: Which binding signal does the source give for “GATAGGCAAAGCTTCGAACTTTGGGCTGAAAACAAATTTTCGGAGTCACCTAGTGCAG” here?
Answer: 28400 fluorescence intensity (a.u.)

Question: Which binding signal does the source give for “TTACTAGTACATTTAATATATTTATTTAATGTATTTGTATCGGAGTCACCTAGTGCAG” here?
Answer: 3140 fluorescence intensity (a.u.)

Question: How did the binding signal turn out when “ATGGTCTCTCTGGATCCATCCCCTCCTCTTCTTCCAATATCGGAGTCACCTAGTGCAG” was run?
Answer: 3670 fluorescence intensity (a.u.)

Question: Which binding signal does the source give for “GCCATGGAAACCAGTTAAACGTATTAATTTAACATATGCTCGGAGTCACCTAGTGCAG” here?
Answer: 4270 fluorescence intensity (a.u.)

Question: With “TTTCATTTCGTGCGCGCGAGTTTTCCTCTTAGCGTAGGCCCGGAGTCACCTAGTGCAG” as the sequence, how does the binding signal read?
Answer: 3280 fluorescence intensity (a.u.)

Question: For “ATGCGCGCCGCTCCTTTCCTCCCTCCGGCCGGCGCCTGTGCGGAGTCACCTAGTGCAG”, which binding signal is on record?
Answer: 3360 fluorescence intensity (a.u.)

Question: How did the binding signal turn out when “AATATGAAAGAAACACATGTGCACATAACACAAAGCTATACGGAGTCACCTAGTGCAG” was run?
Answer: 3560 fluorescence intensity (a.u.)

Question: With “AATATGTTACACGTTTGTTTTGACACTTTCTCCGGCCTAACGGAGTCACCTAGTGCAG” as the sequence, how does the binding signal read?
Answer: 3250 fluorescence intensity (a.u.)

Question: “GTTCGTTTGTCTCTTCCATTCCTGACGTGGCAAGCCTTCGCGGAGTCACCTAGTGCAG” was tested. Which binding signal did it give?
Answer: 38800 fluorescence intensity (a.u.)

Question: With “AGCACATATTCATCTCACGCTTCCTTCTCACTTCTTGTCCCGGAGTCACCTAGTGCAG” as the sequence, how does the binding signal read?
Answer: 13900 fluorescence intensity (a.u.)

Question: For “GATACTAAGTTTCATCCAAGTCAACAGTTCTACTGCAGCTCGGAGTCACCTAGTGCAG”, which binding signal is on record?
Answer: 4080 fluorescence intensity (a.u.)

Question: With “AGGAGGGTGATTCACTCAAAAGCATGACAGGGAGACAAATCGGAGTCACCTAGTGCAG” as the sequence, how does the binding signal read?
Answer: 4710 fluorescence intensity (a.u.)

Question: “ATGCGCGCGGCGGCGGCATCGACGCCCTTGAGGCGGGCGCCGGAGTCACCTAGTGCAG” was tested. Which binding signal did it give?
Answer: 28200 fluorescence intensity (a.u.)

Question: For “ATATGCTAATTAGCACACGTTTACTGTATCATCACATAGGCGGAGTCACCTAGTGCAG”, which binding signal is on record?
Answer: 3760 fluorescence intensity (a.u.)

Question: “TATGTGATCAGCTTGCTGACGTAGGACTCGGGTAGTGTCCCGGAGTCACCTAGTGCAG” was tested. Which binding signal did it give?
Answer: 15700 fluorescence intensity (a.u.)

Question: With “GGATGGACGTGTGGGGCCTCGCCGTCAGCATTTGCTCCTTCGGAGTCACCTAGTGCAG” as the sequence, how does the binding signal read?
Answer: 4560 fluorescence intensity (a.u.)

Question: “CCCCGCGGGCGCGGGAGTTCCACGTACTGAGGCTGACAGTCGGAGTCACCTAGTGCAG” was tested. Which binding signal did it give?
Answer: 6430 fluorescence intensity (a.u.)

Question: For “GCAACATAACCCATCCTAGATTGCTATATATTGGGACGAACGGAGTCACCTAGTGCAG”, which binding signal is on record?
Answer: 65500 fluorescence intensity (a.u.)

Question: How did the binding signal turn out when “GTTCCAGAAAGCTCCGTTACGAACAGTGCACGTGTCGACTCGGAGTCACCTAGTGCAG” was run?
Answer: 6020 fluorescence intensity (a.u.)

Question: Which binding signal does the source give for “CGGTCTCCCGGTGAGGAGCCCCACGCTCCGTCAAGGTGCTCGGAGTCACCTAGTGCAG” here?
Answer: 3220 fluorescence intensity (a.u.)

Question: How did the binding signal turn out when “CGGACCGCCGCGCTTGCACCAGCATCCAGATCAGCGCCGCCGGAGTCACCTAGTGCAG” was run?
Answer: 3540 fluorescence intensity (a.u.)

Question: Which binding signal does the source give for “GAATCAACCAGTGGCCTCAACATAATCATCCCTGAGGTTACGGAGTCACCTAGTGCAG” here?
Answer: 3480 fluorescence intensity (a.u.)

Question: Which binding signal does the source give for “TTGACGTATATATACGAGTCTATGTCATCAGTAATAATGTCGGAGTCACCTAGTGCAG” here?
Answer: 4940 fluorescence intensity (a.u.)

Question: Which binding signal does the source give for “ACGGCCCAATAGGCCCATTAACGTTAGAAATGCTCGGCTCCGGAGTCACCTAGTGCAG” here?
Answer: 32800 fluorescence intensity (a.u.)

Question: “AAATCACGGATTAAATCTACGTACGTGGCGTGCAAATCCTCGGAGTCACCTAGTGCAG” was tested. Which binding signal did it give?
Answer: 6870 fluorescence intensity (a.u.)

Question: “CACAAATTTGTCGTGAACAACTTGCTGAATTACCATCCTTCGGAGTCACCTAGTGCAG” was tested. Which binding signal did it give?
Answer: 16500 fluorescence intensity (a.u.)

Question: Which binding signal does the source give for “TATTTGTAGCCAGCTGTAGCACGGACTCCAAGACACAGTGCGGAGTCACCTAGTGCAG” here?
Answer: 3230 fluorescence intensity (a.u.)

Question: For “CTCCTGCCCACCAATCTTGCGGCGGAAAACAAGGCGTGATCGGAGTCACCTAGTGCAG”, which binding signal is on record?
Answer: 4000 fluorescence intensity (a.u.)

Question: How did the binding signal turn out when “TTTCAAACATAGCCACGATGACTCGAGTCGTGTCATAACGCGGAGTCACCTAGTGCAG” was run?
Answer: 5870 fluorescence intensity (a.u.)

Question: With “CTGCGGTGATTTCTAAACCATAGTAACCACAACTAAACAACGGAGTCACCTAGTGCAG” as the sequence, how does the binding signal read?
Answer: 26300 fluorescence intensity (a.u.)

Question: Which binding signal does the source give for “GTCCAGCCTCCTCCTCCGCTGACCTCCTCGCGGTCTTCTCCGGAGTCACCTAGTGCAG” here?
Answer: 4520 fluorescence intensity (a.u.)

Question: With “GACATGAAGTCATGCACAAAGCGTCAAGGCCAGCGAGGCACGGAGTCACCTAGTGCAG” as the sequence, how does the binding signal read?
Answer: 3960 fluorescence intensity (a.u.)

Question: Which binding signal does the source give for “CACTGTCGTGTCGCAGTCTCTCTCCCATCCCTCGTCTATACGGAGTCACCTAGTGCAG” here?
Answer: 24300 fluorescence intensity (a.u.)

Question: “TTTTAACACTGCAATCCATCATGCATCACAGTAGGATCATCGGAGTCACCTAGTGCAG” was tested. Which binding signal did it give?
Answer: 3920 fluorescence intensity (a.u.)

Question: How did the binding signal turn out when “AAGGAGAGTAAAGTTTGACTCCACAGTCCACCACCCGTGACGGAGTCACCTAGTGCAG” was run?
Answer: 3750 fluorescence intensity (a.u.)

Question: “GCTAACCATAATGATGACAATTGCCTGACAGAGAAAGACACGGAGTCACCTAGTGCAG” was tested. Which binding signal did it give?
Answer: 3640 fluorescence intensity (a.u.)

Question: How did the binding signal turn out when “TGAGCACATGGCAGGGGAGGGACCGATGGGTGGGAGGACGCGGAGTCACCTAGTGCAG” was run?
Answer: 3850 fluorescence intensity (a.u.)

Question: For “GTGGGCCACTACCTTCGCGTTCTTCATCGCCCACGTGGTCCGGAGTCACCTAGTGCAG”, which binding signal is on record?
Answer: 6290 fluorescence intensity (a.u.)

Question: How did the binding signal turn out when “GACGACGGCATCGTCGTCGGCGTCAGCGGGGACGACCGCCCGGAGTCACCTAGTGCAG” was run?
Answer: 4650 fluorescence intensity (a.u.)
